Source: patent US6887468B1 (Board of Regents, The University of Texas System, priority 1999, dated 2005)
Some results were stated once for a whole list of compounds, not compound by compound.

Tested on: VEGF-induced permeability
Experiment: Miles permeability assay
Conditions: guinea pig, in vivo

“2C3: anti-VEGF monoclonal IgG2a,k from hybridoma ATCC PTA 1595; blocks VEGF binding to VEGFR2 but not VEGFR1” was tested, and the “Molar excess of IgG over VEGF at which VEGF-induced permeability was inhibited” value was ≥ 10 fold molar excess over VEGF.
